Reference: the supplement of paper PMC12823440, “Inhibitors supercharge kinase turnover through native proteolytic circuits” (Nature, 2025)
Where a name gives a salt, the structure may show the parent alone. Some of the results follow. Hit calls seldom repeat between salt and free forms of one compound.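 Kinases were expressed as nanoluciferase fusions in K562 cells and luminescence was read every 4 h between 2 and 18 h as percent of control, DMSO set to 100% and a positive control to 0%. A time point counts as decreased when the signal drops significantly (2 sigma). The hit call is the authors' own, does not follow from the count of time points alone, and its rule is not shown.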

By UniProt entry, the sequences of proteins in these tests, tags left out. Where a name states a change or a piece, a line headed by the entry shows the natural chain unless it says otherwise.
UniProt P06241, whole entry, looked up: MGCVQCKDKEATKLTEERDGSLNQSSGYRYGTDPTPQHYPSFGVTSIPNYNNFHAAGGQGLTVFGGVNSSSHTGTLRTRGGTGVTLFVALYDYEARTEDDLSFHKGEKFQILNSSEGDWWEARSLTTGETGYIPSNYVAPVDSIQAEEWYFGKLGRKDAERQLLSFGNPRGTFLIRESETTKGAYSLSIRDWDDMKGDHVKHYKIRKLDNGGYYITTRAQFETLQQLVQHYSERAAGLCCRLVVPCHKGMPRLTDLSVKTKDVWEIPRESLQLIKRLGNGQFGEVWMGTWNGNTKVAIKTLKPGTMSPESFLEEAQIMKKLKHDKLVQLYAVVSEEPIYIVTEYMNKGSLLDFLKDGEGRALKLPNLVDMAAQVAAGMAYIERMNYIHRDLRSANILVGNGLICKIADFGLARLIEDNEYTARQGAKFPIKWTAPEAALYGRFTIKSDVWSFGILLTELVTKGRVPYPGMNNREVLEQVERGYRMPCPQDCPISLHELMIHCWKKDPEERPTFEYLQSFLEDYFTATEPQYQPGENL
UniProt P49840: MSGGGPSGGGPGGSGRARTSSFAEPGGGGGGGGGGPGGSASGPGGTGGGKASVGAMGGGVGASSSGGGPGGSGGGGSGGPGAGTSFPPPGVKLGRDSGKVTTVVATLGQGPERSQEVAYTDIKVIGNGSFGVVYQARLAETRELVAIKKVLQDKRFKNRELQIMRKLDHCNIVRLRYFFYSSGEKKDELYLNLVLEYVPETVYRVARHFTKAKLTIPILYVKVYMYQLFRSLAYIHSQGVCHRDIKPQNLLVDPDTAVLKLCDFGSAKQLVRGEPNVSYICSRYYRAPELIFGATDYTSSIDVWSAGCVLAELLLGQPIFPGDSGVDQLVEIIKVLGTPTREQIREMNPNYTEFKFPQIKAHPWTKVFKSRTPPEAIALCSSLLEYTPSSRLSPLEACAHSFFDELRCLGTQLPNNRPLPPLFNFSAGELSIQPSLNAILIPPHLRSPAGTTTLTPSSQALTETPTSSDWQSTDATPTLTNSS
UniProt P23458: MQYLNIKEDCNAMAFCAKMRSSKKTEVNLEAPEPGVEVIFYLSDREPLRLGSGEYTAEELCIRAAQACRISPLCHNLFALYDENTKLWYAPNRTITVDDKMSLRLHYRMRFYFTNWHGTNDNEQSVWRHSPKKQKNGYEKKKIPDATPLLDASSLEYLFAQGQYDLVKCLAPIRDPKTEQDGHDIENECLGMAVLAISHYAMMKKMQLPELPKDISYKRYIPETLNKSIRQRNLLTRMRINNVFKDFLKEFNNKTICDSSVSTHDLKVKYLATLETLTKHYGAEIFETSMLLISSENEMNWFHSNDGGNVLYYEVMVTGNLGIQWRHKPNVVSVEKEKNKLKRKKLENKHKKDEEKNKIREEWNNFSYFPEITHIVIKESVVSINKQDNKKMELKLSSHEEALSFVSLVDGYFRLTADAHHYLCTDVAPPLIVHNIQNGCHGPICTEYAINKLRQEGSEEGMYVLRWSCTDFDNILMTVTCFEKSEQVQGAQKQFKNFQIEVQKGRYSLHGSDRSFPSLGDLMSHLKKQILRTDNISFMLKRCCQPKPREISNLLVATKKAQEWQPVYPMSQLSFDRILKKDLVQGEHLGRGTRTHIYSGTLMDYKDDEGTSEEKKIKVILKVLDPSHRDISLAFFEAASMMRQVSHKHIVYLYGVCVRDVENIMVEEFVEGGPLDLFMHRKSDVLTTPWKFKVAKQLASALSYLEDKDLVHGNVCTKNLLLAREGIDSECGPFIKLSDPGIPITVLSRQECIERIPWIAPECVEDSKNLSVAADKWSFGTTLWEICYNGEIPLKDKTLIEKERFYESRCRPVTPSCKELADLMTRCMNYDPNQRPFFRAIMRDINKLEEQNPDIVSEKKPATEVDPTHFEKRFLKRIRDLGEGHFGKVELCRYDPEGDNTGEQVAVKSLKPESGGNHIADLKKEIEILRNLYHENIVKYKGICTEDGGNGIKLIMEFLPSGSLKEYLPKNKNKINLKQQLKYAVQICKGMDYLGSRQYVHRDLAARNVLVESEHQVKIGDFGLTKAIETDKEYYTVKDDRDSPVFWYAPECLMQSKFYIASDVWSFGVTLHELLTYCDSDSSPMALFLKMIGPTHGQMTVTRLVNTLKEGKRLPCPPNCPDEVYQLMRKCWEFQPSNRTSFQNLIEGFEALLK
UniProt P53667: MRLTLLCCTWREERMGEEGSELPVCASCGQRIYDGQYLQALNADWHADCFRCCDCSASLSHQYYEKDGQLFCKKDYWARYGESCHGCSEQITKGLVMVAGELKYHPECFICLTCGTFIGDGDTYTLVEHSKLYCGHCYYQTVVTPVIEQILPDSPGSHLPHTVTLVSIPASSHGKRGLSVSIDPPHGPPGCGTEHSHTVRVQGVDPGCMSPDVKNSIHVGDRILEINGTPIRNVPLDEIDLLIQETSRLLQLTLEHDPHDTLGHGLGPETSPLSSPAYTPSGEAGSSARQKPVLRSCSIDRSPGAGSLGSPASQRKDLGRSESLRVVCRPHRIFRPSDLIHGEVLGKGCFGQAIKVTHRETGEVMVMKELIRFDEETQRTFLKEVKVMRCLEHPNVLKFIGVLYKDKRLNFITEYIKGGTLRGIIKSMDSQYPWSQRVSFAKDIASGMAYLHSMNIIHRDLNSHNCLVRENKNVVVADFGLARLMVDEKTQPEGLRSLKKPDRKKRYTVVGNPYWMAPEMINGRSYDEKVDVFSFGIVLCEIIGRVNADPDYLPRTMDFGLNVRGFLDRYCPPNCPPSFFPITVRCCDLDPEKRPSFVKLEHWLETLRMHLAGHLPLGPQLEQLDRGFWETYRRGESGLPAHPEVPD
UniProt P53671: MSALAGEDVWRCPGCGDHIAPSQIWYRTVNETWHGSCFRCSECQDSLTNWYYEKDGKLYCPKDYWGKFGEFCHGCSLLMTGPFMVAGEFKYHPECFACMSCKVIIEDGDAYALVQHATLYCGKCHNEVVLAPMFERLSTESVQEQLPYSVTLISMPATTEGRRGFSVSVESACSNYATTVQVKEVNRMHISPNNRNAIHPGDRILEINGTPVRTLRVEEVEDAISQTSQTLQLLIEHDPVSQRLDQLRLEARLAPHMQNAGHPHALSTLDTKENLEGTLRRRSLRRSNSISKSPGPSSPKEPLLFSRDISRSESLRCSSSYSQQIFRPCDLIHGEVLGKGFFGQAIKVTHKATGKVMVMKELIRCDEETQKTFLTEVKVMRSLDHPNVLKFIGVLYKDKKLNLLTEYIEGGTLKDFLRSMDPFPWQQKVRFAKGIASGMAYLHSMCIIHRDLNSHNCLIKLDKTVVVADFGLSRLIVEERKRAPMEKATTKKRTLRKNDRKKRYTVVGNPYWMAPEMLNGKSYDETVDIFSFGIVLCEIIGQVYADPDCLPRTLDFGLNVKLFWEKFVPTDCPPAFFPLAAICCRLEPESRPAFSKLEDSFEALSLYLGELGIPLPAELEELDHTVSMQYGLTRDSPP
UniProt Q8IWU2: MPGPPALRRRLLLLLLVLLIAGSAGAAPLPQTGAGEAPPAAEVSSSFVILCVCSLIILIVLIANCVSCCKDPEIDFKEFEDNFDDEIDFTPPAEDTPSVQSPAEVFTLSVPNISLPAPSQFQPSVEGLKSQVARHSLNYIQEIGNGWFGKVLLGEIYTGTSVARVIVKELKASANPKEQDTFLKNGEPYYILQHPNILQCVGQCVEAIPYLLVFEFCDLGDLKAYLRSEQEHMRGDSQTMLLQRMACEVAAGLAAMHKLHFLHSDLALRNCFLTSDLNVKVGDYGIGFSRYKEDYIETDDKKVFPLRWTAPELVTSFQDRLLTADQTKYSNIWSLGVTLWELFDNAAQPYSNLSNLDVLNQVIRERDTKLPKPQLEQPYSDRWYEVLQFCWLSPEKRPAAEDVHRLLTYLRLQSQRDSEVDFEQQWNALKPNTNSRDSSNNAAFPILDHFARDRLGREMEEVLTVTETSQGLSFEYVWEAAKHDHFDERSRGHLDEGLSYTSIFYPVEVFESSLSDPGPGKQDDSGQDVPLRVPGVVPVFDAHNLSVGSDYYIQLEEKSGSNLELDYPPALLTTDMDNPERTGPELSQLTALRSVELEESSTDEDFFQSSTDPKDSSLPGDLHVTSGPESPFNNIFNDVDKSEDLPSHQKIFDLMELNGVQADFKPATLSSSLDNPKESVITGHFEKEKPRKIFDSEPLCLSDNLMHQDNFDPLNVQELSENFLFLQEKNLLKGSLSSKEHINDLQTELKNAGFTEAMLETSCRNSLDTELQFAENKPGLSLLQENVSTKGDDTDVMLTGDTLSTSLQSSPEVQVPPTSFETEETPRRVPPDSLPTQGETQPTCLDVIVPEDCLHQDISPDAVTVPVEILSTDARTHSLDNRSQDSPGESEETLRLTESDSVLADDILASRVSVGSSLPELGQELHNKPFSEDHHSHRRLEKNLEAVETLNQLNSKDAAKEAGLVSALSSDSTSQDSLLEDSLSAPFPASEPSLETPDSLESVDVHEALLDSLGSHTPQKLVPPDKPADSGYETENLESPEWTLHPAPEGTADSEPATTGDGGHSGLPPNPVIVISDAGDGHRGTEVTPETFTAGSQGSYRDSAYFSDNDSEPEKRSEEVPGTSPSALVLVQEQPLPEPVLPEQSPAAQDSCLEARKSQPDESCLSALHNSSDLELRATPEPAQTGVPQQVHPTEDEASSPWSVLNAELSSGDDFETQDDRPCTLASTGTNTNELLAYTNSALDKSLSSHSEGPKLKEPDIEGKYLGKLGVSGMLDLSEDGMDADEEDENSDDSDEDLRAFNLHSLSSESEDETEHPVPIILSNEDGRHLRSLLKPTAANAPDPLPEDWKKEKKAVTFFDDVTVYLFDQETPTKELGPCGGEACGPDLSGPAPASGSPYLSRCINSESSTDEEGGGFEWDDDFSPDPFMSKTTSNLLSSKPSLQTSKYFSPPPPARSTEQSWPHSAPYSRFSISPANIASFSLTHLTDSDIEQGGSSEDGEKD
UniProt P07948: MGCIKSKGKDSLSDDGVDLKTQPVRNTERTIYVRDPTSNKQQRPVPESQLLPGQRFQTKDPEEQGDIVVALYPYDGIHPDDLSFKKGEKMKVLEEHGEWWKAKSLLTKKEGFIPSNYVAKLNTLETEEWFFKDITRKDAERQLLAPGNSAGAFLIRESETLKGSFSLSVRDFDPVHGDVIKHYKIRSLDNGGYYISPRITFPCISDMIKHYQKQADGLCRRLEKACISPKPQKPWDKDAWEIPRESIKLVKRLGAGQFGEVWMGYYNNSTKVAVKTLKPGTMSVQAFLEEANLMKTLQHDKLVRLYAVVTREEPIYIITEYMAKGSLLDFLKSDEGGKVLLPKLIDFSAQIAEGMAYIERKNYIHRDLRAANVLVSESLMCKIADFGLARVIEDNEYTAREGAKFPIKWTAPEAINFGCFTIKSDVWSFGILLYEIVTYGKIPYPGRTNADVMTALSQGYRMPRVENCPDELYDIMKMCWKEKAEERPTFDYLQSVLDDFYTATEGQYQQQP
UniProt P31152, whole entry: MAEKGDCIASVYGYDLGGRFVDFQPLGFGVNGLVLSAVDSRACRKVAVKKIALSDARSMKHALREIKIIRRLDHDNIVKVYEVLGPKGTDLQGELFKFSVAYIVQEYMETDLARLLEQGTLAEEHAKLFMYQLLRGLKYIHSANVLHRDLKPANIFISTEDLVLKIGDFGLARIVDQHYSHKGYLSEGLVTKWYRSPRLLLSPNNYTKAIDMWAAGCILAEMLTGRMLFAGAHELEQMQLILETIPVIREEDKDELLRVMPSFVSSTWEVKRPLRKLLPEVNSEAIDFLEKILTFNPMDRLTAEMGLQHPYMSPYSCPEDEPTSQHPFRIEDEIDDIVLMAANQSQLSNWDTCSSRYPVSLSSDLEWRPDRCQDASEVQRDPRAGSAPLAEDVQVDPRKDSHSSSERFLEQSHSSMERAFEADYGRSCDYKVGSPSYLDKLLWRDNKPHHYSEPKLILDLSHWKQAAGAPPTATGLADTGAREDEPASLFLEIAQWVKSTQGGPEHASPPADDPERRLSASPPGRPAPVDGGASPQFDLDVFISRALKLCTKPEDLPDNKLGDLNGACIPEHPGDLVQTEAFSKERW
UniProt P49137, whole entry, looked up: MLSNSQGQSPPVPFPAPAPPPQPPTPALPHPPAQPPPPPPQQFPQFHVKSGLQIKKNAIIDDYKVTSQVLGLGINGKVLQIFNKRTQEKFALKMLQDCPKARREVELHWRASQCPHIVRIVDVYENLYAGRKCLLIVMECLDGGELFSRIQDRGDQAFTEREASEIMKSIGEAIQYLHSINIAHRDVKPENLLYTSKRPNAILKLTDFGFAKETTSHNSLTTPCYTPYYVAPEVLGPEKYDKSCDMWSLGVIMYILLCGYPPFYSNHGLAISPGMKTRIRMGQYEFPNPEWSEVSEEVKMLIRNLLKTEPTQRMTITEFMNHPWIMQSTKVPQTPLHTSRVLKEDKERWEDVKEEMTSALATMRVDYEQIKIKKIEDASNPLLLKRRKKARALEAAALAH

What was measured:
Test in all cases: number of time points (of 5) at which kinase-Nluc abundance scored as decreased, DMSO-normalised (count); higher = more persistent destabilization
Settings in all cases: K562; 2-18 h
[1] = molecular target: FLT3 (UniProt P36888)
[2] = molecular target: FYN (UniProt P06241)
[3] = molecular target: GSK3A (UniProt P49840)
[4] = molecular target: HER2 (UniProt P04626)
[5] = molecular target: INSRR (UniProt P14616)
[6] = molecular target: IRAK3 (UniProt Q9Y616)
[7] = molecular target: JAK1 (UniProt P23458)
[8] = molecular target: LCK (UniProt P06239)
[9] = molecular target: LIMK1 (UniProt P53667)
[10] = molecular target: LIMK2 (UniProt P53671)
[11] = molecular target: LMTK2 (UniProt Q8IWU2)
[12] = molecular target: LYN (UniProt P07948)
[13] = molecular target: MAP2K1 (UniProt Q02750)
[14] = molecular target: MAP2K2 (UniProt P36507)
[15] = molecular target: MAP4K2 (UniProt Q12851)
[16] = molecular target: MAPK1 (UniProt P28482)
[17] = molecular target: MAPK4 (UniProt P31152)
[18] = molecular target: MAPKAPK2 (UniProt P49137)
[19] = molecular target: MKNK1 (UniProt Q9BUB5)
[20] = molecular target: NTRK2 (UniProt Q16620)

Measured: number of time points

CC(C)CNc1ccnc(NCc2csc(-c3ccccc3)n2)n1 [KHS101 hydrochloride] (2.5 µM)
3: [11]
0: all other assays above

O=C(Nc1cccc(Nc2ncc(Br)c(NCCc3cnc[nH]3)n2)c1)N1CCCC1 (10 µM)
3: [2] | [6] | [7] | [9]
2: [5]
1: [10]
0: all other assays above

CC(C)N1CCN(c2ccc(Nc3ncc4cc5n(c4n3)C3(CCCCC3)CNC5=O)nc2)CC1 [Lerociclib (dihydrochloride)] (2 µM)
3: [6] | [20]
2: [11]
0: all other assays above

O=C1/C(=C\c2ccc(Cl)cc2)C=C(c2ccccc2)N1c1ccc(O)cc1 (2.5 µM)
0: all assays above

N[C@@H](CCC(=O)O)C(=O)N[C@@H](Cc1c[nH]c2ccccc12)C(=O)O [Oglufanide] (10 µM)
0: all assays above

O=C(Nc1nc2ccccc2[nH]1)c1cccc([N+](=O)[O-])c1 [IRAK-4 protein kinase inhibitor 2] (10 µM)
0: all assays above

C=CC(=O)N1C(=O)CC(c2ccc(F)cc2)Sc2ccccc21 (stereo not drawn) [GSK-3β inhibitor 3] (10 µM)
2: [2]
3: [4]
0: all other assays above

NC(=O)N1CCC(CC(=O)N2CCC([C@H]3c4ncc(Br)cc4CCc4cc(Cl)cc(Br)c43)CC2)CC1 [Lonafarnib] (2.5 µM)
0: all assays above

Cc1ccc(NC(=O)c2ccc(CN(CCN(C)C)C(=O)c3cccnc3)cc2)cc1Nc1nccc(-c2cccnc2)n1 [PDGFRα kinase inhibitor 1] (10 µM)
0: all assays above

O=C1NC(=O)C(c2cnc3ccccn23)=C1c1cn2c3c(cc(F)cc13)CNCC2 [GSK-3 inhibitor 1] (2.5 µM)
3: [11]
0: all other assays above

COc1ncccc1-c1cnn2ccc(N3CCN(C(=O)OC(C)C)CC3)nc12 (10 µM)
0: all assays above

CS(=O)(=O)c1ccc(-c2cnc(N)c(-c3ccc(C(F)(F)F)nc3)c2)cc1 (10 µM)
0: all assays above

Cn1cc(-c2cnc3cnn(S(=O)(=O)c4cnc5ccc(-c6cnn(C)c6)cn45)c3c2)cn1 [Glumetinib] (10 µM)
0: all assays above

Cn1cc(C2=C(c3cccc(N)c3)C(=O)NC2=O)c2ccccc21 (10 µM)
0: all assays above

Cc1nn(C)c2c1C(c1ccc(C(F)(F)F)cc1)C(C#N)=C(N)O2 (stereo not given) (10 µM)
0: all assays above

O=[N+]([O-])c1ccc(Nc2nc(N3CCOCC3)nc(N3CCOCC3)n2)cc1 (10 µM)
0: all assays above

CC(C)S(=O)(=O)c1ccc2nccc(Nc3ccc4scnc4c3)c2c1 (10 µM)
2: [5]
0: all other assays above

Three entries already listed, sorted by formula weight, low to high.
O=C(Nc1nc2ccccc2[nH]1)c1cccc([N+](=O)[O-])c1 [IRAK-4 protein kinase inhibitor 2] (10 µM)
0: all assays above

CC(C)S(=O)(=O)c1ccc2nccc(Nc3ccc4scnc4c3)c2c1 (10 µM)
2: [5]
0: all other assays above

O=C(Nc1cccc(Nc2ncc(Br)c(NCCc3cnc[nH]3)n2)c1)N1CCCC1 (10 µM)
3: [2] | [6] | [7] | [9]
2: [5]
1: [10]
0: all other assays above

The list continues.

c1ccc(-c2nc3c(c(-n4ccc5cnccc54)n2)CCC3)nc1 (10 µM)
0: all assays above

Cc1cnc(NC2CCOCC2)nc1-n1cnc(C(=O)N[C@H](CN)c2cc(F)cc(Cl)c2)c1 (10 µM)
0: all assays above

COc1ccc(/C=C/C(=O)C2(C(=O)/C=C/c3ccc(OC)c(OC)c3)CCCCC2)cc1OC (2.5 µM)
2: [2]
1: [4] | [5]
0: all other assays above

Cc1nc(-c2cnn(C)c2)nc2c1[nH]c1ncc(-c3ccc(N4CCN(C)CC4)cc3)cc12 [GNE 220 (hydrochloride)] (10 µM)
0: all assays above

CN1CCC(c2ccccc2CC(C)(C)Nc2nc(N3CCOCC3)nc(-n3c(C(F)F)nc4ccccc43)n2)CC1 [Zandelisib] (10 µM)
0: all assays above

COc1ccccc1C(=O)/C=C/c1ccccc1C(=O)O (10 µM)
0: all assays above

COc1ccc(-c2c(C)nn3c(NCCN4CCOCC4)cc(C)nc23)cc1OC (10 µM)
0: all assays above

O=C(Nc1nc2ccc(NC(=O)C34CC5CC(CC(C5)C3)C4)cc2s1)c1ccccc1 (10 µM)
1: [12] | [19]
0: all other assays above

CCN(CC)CCC(=O)N1N=C(c2c(-c3ccccc3)c3cc(Br)ccc3[nH]c2=O)CC1c1ccc(Br)cc1 (stereo not given) (2.5 µM)
1: [2]
0: all other assays above

O=C(CNc1cccc(Cl)c1)NC1CCCN(c2ncnc3[nH]ccc23)C1 (stereo not given) (10 µM)
0: all assays above

Cn1cc2cc(C(F)(F)c3nnc4ccc(-c5cnn(C6CC6)c5)nn34)c(F)cc2n1 [Bozitinib] (10 µM)
0: all assays above

Cc1ncc(NC(=O)NC2c3ccccc3-c3ccccc32)c(-c2ccccc2)n1 (10 µM)
0: all assays above

Nc1ncnc2c1c(-c1ccc(Oc3ccccc3)cc1)nn2C1CCN(CCOCCOCCOc2ccc3c(c2)CN(C2CCC(=O)NC2=O)C3=O)CC1 (stereo not given) (2.5 µM)
0: all assays above

C=CC(=O)Nc1cccc(-c2cccc3cnc(Nc4ccc(N5CCN(CCO)CC5)c(F)c4F)nc23)c1 [Olafertinib] (2.5 µM)
0: all assays above

Cc1ccc(NC(=O)c2ccnc(C(F)(F)F)c2)cc1-c1cc(OCCO)nc(N2CCOCC2)c1 (10 µM)
0: all assays above

C[C@@H]1CC(=O)c2c(ccc3c2C(=O)c2cccc(O)c2C3=O)C1 [Ochromycinone] (10 µM)
0: all assays above

O=c1cc(N2CCOCC2)nc2c3ccccc3ccn12 [Compound 401] (10 µM)
0: all assays above

Nc1c(C(=O)NCc2ccc(C(=O)NCCCC3CCCCC3)cc2)cnn1-c1ccccc1 (2.5 µM)
0: all assays above

C#Cc1cccc(Nc2ncnc3cc(OC)c(OCCCCCCC(=O)NO)cc23)c1 (2.5 µM)
1: [10]
0: all other assays above

Cc1cc2sc(NC(=O)Cc3ccccc3)nc2cc1Cl (10 µM)
0: all assays above

C[C@@H]1CCNC(=O)c2cc3ccc(C(=O)Nc4nc5ccccc5n4CCCN(C)C)cc3n21 (10 µM)
0: all assays above

COCCNc1cc(NC(=O)N2CCCc3cc(CN4CCN(C)CC4=O)c(C=O)nc32)ncc1C#N [Roblitinib] (10 µM)
0: all assays above

O=C(Nc1nc(=O)n(Cc2ccc(Cl)cc2)s1)c1ccc(Cl)cc1 (10 µM)
0: all assays above

CCc1ccc(OCC(=O)Nc2ccc(F)c([N+](=O)[O-])c2)cc1 (10 µM)
0: all assays above

Cc1cccc2c3c(ccc12)C(=O)C1=C(OCC1C)C3=O (stereo not given) [Dihydroisotanshinone I] (2.5 µM)
0: all assays above

CNc1nc(Nc2cn(C(C)(C)C#N)nc2C)ncc1C(F)(F)F (10 µM)
0: all assays above

COc1ccc2cc(-c3nc(-c4ccc([S+](C)[O-])cc4)[nH]c3-c3ccncc3)ccc2c1 (stereo not given) [Tie2 kinase inhibitor 1] (2.5 µM)
0: all assays above

Cc1ccc(C(=O)Nc2sc(Nc3ccccc3)nc2C(N)=O)cc1 (10 µM)
0: all assays above

CCN(CC)c1cc2oc(=O)c(-c3nc4ccccc4o3)cc2cc1C (2.5 µM)
1: [4]
0: all other assays above

O=C(O)c1cc(N(Cc2ccccc2O)Cc2ccccc2O)ccc1O [Lavendustin B] (10 µM)
0: all assays above

C=CC(=O)N1CCC[C@H](n2c(=O)n(-c3ccc(Oc4ccccc4)cc3)c3c(N)ncnc32)C1 [ONO-4059 (analog)] (10 µM)
0: all assays above

C[C@@H]1O[C@@H](O[C@@H]2[C@@H](O)[C@H](OCCc3ccc(O)c(O)c3)O[C@H](CO)[C@H]2OC(=O)/C=C/c2ccc(O)c(O)c2)[C@H](O)[C@H](O)[C@H]1O [Verbascoside] (10 µM)
0: all assays above
